# Laboratory results taken from publication PMC7605433.
# These are yes or no findings as the source states them, for the method shown. Binding seen in cells or lysates may run through a third protein. Binding can be weak; no strength is given. Tags and fused reporters may be left off the sequences shown.
# Molecular target: T1, Myc-RNF181 (UniProt Q9P0P0)
# T1 sequence: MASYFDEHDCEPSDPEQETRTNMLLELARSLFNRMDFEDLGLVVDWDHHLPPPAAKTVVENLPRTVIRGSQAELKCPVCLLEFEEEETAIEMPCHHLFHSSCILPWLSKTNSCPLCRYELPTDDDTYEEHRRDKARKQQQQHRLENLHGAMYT
# Assay: co-IP; HEK293 cells transfected with Myc-RNF181 and HA-ERα full length or mutants, 10 uM MG132 for 6 h, NP-40 lysis buffer; IP with Myc antibody, detection with HA antibody
substance,measurement,value
HA-ERα ΔAF2 + ΔDBD (domain or fragment),binding,binds
